# Results as given in paper PMC11336944.
# The chains behind the UniProt entries cited, without tags or fusion partners.
# UniProt P29341: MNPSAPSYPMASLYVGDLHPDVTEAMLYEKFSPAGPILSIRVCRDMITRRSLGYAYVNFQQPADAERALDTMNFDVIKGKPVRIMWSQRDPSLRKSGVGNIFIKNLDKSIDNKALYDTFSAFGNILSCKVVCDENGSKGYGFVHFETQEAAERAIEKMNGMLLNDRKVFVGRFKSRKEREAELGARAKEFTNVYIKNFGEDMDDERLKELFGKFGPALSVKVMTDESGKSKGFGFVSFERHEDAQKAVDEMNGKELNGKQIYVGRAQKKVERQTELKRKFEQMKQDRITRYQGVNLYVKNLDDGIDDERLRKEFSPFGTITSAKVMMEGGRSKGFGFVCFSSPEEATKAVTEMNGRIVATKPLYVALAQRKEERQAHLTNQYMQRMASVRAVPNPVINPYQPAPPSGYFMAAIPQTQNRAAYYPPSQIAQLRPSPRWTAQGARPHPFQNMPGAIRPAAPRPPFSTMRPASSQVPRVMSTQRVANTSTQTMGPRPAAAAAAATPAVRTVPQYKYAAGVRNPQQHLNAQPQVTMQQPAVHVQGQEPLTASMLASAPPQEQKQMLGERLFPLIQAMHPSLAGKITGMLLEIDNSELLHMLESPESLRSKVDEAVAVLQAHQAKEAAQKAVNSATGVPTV
# UniProt O70133: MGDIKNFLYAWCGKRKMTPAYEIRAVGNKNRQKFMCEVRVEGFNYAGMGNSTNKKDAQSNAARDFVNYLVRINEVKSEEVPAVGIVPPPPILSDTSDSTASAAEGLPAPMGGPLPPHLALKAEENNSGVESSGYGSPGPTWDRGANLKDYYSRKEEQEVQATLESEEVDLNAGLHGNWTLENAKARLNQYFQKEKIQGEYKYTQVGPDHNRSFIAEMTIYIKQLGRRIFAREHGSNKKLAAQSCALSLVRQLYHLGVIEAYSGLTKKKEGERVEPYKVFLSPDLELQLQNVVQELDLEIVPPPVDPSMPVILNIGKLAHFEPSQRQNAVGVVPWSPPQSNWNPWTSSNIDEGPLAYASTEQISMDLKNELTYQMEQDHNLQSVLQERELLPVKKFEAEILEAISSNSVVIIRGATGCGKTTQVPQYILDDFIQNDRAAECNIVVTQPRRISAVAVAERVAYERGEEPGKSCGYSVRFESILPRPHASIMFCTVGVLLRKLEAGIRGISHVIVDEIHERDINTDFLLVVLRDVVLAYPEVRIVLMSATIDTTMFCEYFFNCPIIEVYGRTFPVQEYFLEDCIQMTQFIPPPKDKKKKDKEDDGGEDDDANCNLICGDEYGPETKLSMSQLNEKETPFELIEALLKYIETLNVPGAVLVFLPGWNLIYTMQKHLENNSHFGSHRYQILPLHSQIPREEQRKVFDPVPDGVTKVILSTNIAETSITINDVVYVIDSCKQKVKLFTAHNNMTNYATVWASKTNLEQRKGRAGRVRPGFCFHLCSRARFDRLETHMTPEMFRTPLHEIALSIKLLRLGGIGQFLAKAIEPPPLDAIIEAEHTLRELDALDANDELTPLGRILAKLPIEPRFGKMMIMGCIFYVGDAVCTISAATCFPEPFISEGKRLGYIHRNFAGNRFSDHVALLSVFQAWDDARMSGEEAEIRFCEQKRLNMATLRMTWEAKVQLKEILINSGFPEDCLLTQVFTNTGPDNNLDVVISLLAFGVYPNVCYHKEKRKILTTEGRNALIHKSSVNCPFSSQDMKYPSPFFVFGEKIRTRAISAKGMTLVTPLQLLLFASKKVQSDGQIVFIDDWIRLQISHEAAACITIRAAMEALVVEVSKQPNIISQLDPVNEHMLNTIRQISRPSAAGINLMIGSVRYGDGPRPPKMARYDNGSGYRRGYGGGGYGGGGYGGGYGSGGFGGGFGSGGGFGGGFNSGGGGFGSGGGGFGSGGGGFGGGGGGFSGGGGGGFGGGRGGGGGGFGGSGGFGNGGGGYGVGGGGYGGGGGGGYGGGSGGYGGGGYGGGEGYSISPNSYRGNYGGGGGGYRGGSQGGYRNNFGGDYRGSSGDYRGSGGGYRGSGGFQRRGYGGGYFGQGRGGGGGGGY
# UniProt O35286: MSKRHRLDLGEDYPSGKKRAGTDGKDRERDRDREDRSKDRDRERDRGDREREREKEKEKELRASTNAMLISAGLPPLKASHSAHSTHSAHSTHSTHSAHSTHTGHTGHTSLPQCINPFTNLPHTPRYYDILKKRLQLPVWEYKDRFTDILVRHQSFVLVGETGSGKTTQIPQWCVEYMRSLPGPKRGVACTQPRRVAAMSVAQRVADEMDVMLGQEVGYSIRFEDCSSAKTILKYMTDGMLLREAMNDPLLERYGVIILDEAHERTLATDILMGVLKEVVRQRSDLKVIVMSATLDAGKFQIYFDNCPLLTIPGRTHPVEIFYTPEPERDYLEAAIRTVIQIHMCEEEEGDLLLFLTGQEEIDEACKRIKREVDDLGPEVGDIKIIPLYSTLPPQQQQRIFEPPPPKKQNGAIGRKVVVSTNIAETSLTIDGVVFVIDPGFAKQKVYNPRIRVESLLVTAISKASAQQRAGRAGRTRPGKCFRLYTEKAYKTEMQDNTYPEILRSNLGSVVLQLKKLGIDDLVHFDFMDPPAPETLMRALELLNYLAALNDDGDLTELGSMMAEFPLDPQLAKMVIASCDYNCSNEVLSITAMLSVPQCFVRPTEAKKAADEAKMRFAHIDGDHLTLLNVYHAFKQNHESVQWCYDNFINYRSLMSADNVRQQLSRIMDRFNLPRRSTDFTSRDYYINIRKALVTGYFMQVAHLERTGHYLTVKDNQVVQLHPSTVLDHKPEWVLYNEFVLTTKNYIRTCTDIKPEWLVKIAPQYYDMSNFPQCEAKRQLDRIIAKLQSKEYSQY
# Results are given in words; binding and its absence hold for the method and conditions named. In cells and extracts the contact can be indirect. A yes stands for co-enrichment or nearness to the bait. Other partners may have been found.
# Target: T1, CWF19‐like protein 2 (CWF19L2) (mouse (endogenous in testis)) (UniProt Q8BG79)
# T1 sequence: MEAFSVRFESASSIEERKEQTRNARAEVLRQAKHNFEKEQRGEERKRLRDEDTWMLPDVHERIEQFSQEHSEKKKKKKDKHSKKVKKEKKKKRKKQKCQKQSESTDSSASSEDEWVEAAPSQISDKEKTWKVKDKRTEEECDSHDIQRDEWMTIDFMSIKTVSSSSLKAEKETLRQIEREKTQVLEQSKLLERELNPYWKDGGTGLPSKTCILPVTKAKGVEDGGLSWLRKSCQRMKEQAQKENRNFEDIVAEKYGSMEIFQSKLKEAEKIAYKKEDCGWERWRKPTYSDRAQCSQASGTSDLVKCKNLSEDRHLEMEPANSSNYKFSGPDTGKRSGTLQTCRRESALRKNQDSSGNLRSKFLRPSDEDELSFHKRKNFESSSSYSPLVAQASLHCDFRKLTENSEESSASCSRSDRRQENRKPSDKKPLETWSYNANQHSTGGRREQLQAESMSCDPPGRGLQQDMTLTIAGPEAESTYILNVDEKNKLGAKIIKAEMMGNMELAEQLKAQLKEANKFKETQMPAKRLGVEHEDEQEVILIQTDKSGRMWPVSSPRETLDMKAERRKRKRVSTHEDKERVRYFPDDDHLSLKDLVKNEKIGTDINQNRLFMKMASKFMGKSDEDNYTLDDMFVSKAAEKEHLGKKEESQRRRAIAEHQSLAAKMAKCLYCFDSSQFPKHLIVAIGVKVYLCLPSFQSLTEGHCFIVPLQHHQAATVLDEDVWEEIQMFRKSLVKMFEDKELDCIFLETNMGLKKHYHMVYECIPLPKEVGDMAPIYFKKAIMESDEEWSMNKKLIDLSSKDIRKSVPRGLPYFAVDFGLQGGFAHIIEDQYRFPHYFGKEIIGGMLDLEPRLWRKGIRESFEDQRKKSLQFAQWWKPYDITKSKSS
# Assay: affinity purification with mass spectrometry; immunoprecipitation of endogenous CWF19L2 from PD10 wild-type mouse testes, mass spectrometry (IP-MS)
row,binding,Substance
1,binds,PABPC1 (from UniProt P29341 1-636)
2,binds,DHX9 (from UniProt O70133 1-1380)
3,binds,PRPF43 (from UniProt O35286 1-795)
